Assay results published in patent US12728111B2, “Electrophilic compounds and electrophilic prodrugs for treating aneurysm” (University of Pittsburgh—Of the Commonwealth System of …, priority 2020, dated 2026).

Assay: Serum cholesterol, triglyceride and body weight in AAA model mice
Format: in vivo, mouse
Details: 5 mg/kg/day, 4 weeks; for serum TG levels: compared to vehicle

## CCCCCCCCC(=CCCCCCCCC(=O)O)[N+](=O)[O-] [NO2—OA, 10-nitro-octadec-9-enoic acid]
  body weight: no changes
  cholesterol: no changes
  serum TG levels: significantly decreased

## CCCCCCCCC=CCCCCCCCC(=O)O [OA, octadec-9-enoic acid, reference compound]
  serum TG levels: significantly lower
